{"source": "PubChem BioAssay AID624297", "about": "(National Center for Advancing Translational Sciences (NCATS), 2012)", "note": "The campaign covered roughly 340,000 compounds. About 6,200 (1.8%) were called active. This list was built around the results that the source calls inconclusive (neither active nor inactive); the mix of calls is not that of the screen. Calls follow the shape of the dose curve; as a rule, active = well fitted activation curve with a large enough effect; inconclusive = small, poorly fitted or top-dose-only effect; inactive = no such curve, though single readings can be large or run the other way. Potencies beside an inconclusive call are fits to weak or partial responses and may not hold up. Potency is read from the fitted curve at half-maximal effect."}
{"assay": "A quantitative high throughput screen for small molecules that induce DNA re-replication in SW480 colon adenocarcinoma cells; also: nearly all actives have a fitted effect of over 55% in size.", "details": "Hoechst DNA content imaging, 48 h; series mostly up to 46.1 µM", "in_short": "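Quantitative HTS format with DMSO vehicle controls; 48 hr drug incubation at 37 C, then 40 min Hoechst staining and scanning imager measurement at 405 nm excitation.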"}
{"compound": "CCCN(CCC)CCNC(=O)c1cc2c(-c3ccccc3F)nn(C)c2s1", "Potency": "inconclusive: 29.1 µM [activator, single point]"}
{"compound": "CCOC(=O)c1c(C)[nH]c(C(=O)COC(=O)CNC(=O)c2ccc(Cl)cc2Cl)c1C", "Potency": "inconclusive: 20.6 µM [activator, partial curve, poor fit]"}
{"compound": "COc1cnc(-c2ccccn2)nc1Sc1ccc(C)cc1", "Potency": "inconclusive: 14.6 µM [activator, single point]"}
{"compound": "C=CCN(Cc1cccs1)C(=O)CN1CCN(S(=O)(=O)c2ccc3c(c2)OCCCO3)CC1", "Potency": "inconclusive: 13 µM [activator, partial curve, poor fit]"}
{"compound": "COC(=O)c1cn(NC(=O)c2ccc(OC)c(OC)c2)c(=O)c2ccccc12", "Potency": "inactive"}
{"compound": "FC(F)(F)c1cc(CCN2C(=S)NC[C@@H]2Cc2ccccc2)cc(C(F)(F)F)c1", "Potency": "inconclusive: 2.91 µM [activator, full curve, poor fit]"}
{"compound": "O=C1/C(=C/c2ccc(O)c(O)c2)SC(=S)N1Nc1ccccc1", "Potency": "inconclusive: 18.4 µM [activator, partial curve, poor fit]"}
{"compound": "Cc1ccc(C(=O)OCC(=O)N(C)c2ccccc2)c(C)c1", "Potency": "inconclusive: 1.84 µM [activator, partial curve, poor fit]"}
{"compound": "CCCNC(=O)C(Cc1ccccc1)NC(=O)c1ccccc1", "note": "(configuration not stated)", "Potency": "inactive"}
{"compound": "CCNc1nc(NCC)nc(N/N=C/c2ccc(N(C)C)cc2)n1", "Potency": "inconclusive: 2.31 µM [activator, single point]"}
{"compound": "c1ccc(CSCc2cn3ccccc3n2)cc1", "Potency": "inconclusive: 6.51 µM [activator, single point]"}
{"compound": "Cc1ccc(C)n1-c1nnc(N2CCC(C(=O)NCCCN3CCN(C)CC3)CC2)s1", "Potency": "inconclusive: 16.4 µM [activator, single point]"}
{"compound": "Cc1coc2c(C)c3oc(=O)c(CCC(=O)NCCCn4ccnc4)c(C)c3cc12", "Potency": "inconclusive: 29.1 µM [activator, single point]"}
{"compound": "CC1=NN(c2cccc(C(=O)O)c2)C(=O)/C1=C\\C=C\\c1ccco1", "Potency": "inconclusive: 29.1 µM [activator, single point]"}
{"compound": "CN(Cc1ccccc1)CC(O)COc1ccc(CNCc2cc3ccccc3s2)cc1", "note": "(configuration not stated)", "Potency": "inconclusive: 29.1 µM [activator, single point]"}
{"compound": "C=C(C)CN(CC)c1nc(N)c2c(N)nc3c(c2c1C#N)CC(=O)N3C12CC3CC(CC(C3)C1)C2", "Potency": "inconclusive: 8.2 µM [activator, partial curve]"}
{"compound": "CCN(CC)c1nc2ccccc2n(Cc2cccc(OC)c2)c1=O", "Potency": "inconclusive: 16.4 µM [activator, single point]"}
